Results: patent US6949250B2, “Selective algaecides for control of cyanochloronta” (The United States of America as represented by the …, priority 2002, dated 2005)
For at least one compound, name, drawing or mass did not settle the structure. Marks after values point to notes of the source that are not given here.

Test system: green algae
Experiment: DNA1-19-1 first pond efficacy study (limnocorrals): green algae abundance
Format: in vivo, green algae (Division Chlorophyta)
Details: 2 μM
Procedure: The method described by Schrader et al. (2000) was used to determine the potential for using the anthraquinone derivatives as selective algicides in catfish aquaculture ponds. All catfish ponds used in efficacy tests were maintained using commercial pond management practices and were located at the Thad Cochran Pond Facility, Mississippi State University, Stoneville, Miss. Anthraquinone analogs were dissolved in deionized water before application to water within the limnocorrals.
Limnocorrals in which test compound was applied to the enclosed water were randomly selected, and control (no test compound applied) limnocorrals were included in each efficacy study. For each sampling, two water samples (250 mL) were obtained from within each limnocorral (approximately 6-8 cm below the water surface and from opposite sides of each limnocorral) and mixed together in a 500 mL sample bottle to provide a representative sample of the water contained within the limnocorral.
Three pond efficacy studies were conducted with DNA1-19-1. In the first study, six limnocorrals (open-ended fiberglass cylinders, 2.44 m in diameter and 1.53 m high; Solar Components Corporation, Manchester, N.H.) were placed in a 4-ha earthen catfish pond. The pond was chosen due to the presence of a bloom of O. perornata. The water within each limnocorral received mixing in the same manner as used by Schrader et al. (2000). Three randomly selected limnocorrals were used as treatments (received DNA1-19-1), and the other three limnocorrals were controls. Water samples were taken before application of DNA1-19-1 (2 μM or 1,148 μg/L/enclosure), 16 hours after application, and at days 3, 8, and 10. Water samples were analyzed for chlorophyll a by the chloroform-methanol extraction method followed by spectroscopy (S. W. Lloyd and C. S. Tucker, Comparison of three solvent systems for extraction of chlorophyll a from fish pond phytoplankton communities, J. World Aquacult. Soc. (1988), vol. 19, pp. 36-40), phytoplankton community structure and enumeration (American Public Health Association, American Water-Works Association, and Water Pollution Control Federation, Standard Methods for the Examination of Water and Wastewater, 18th Edition. APHA, Washington, D.C. (1992)), and for geosmin and MIB levels using solid phase microextraction with gas chromatography-mass spectrometry (SPME-GC-MS) (Lloyd et al., J. M. Lea, P. V. Zimba and C. C. Grimm, Rapid analysis of geosmin and 2-methylisoborneol in water using solid-phase microextraction procedures. Water Res. (1998), vol. 32, pp. 2140-2146). To perform phytoplankton identification and enumeration, water samples were processed by preserving 50-mL subsamples with Lugol's solution and storing them at 4° C. until they could be identified and counted as “natural units” (i.e., colonies, filaments, or unialgal cells) using a Sedgewick-Rafter counting chamber at 300× magnification. Eukaryotic algae were identified to the genus level and filamentous cyanobacteria to the species.

Question: With `CCN(CC)CCCC(C)NCc1ccc2c(c1)C(=O)c1ccccc1C2=O.O=P(O)(O)O.O=P(O)(O)O` (centres unmarked) [DNA1-19-1, 2-[methylamino-N-(1′-methyl-4′-N,N-diethylaminobutyl)]-9,10-anthraquinone diphosphate] as the compound, how does the “green algae Natural Units/mL in Treatment Limnocorrals” value (shortened to “green algae Natural Units/mL”) (day 0 (before application)) read?
Answer: 2,047^a ± 126 Natural Units/mL

Question: What about the “green algae Natural Units/mL” value (day 0.7) of the same compound?
Answer: 1,845^a ± 251 Natural Units/mL

Question: And the “green algae Natural Units/mL” value (day 3.0)?
Answer: 346^a ± 173 Natural Units/mL

Question: And the “green algae Natural Units/mL” value (day 8.0)?
Answer: 115^a ± 115 Natural Units/mL

Question: What about the “green algae Natural Units/mL” value (day 10.0) of the same compound?
Answer: 0^b ± 0 Natural Units/mL
